No constants are given. Whether binding was seen depends on the method and setting. In cells and extracts the contact can be indirect. Some entries that bind do so weakly or less than the wild type.
Biological target: IK (human (endogenous in Ishikawa)) (UniProt Q13123)
Experiment: co-IP; reciprocal IP followed by Western blotting, endogenous proteins of Ishikawa cells after cisplatin treatment; IP buffer NaCl 125 mM, HEPES 25 mM, EDTA 2.5 mM, 0.1% NP-40; overnight at 4 °C with protein A/G agarose beads

Chains of the proteins cited; added tags and fusions are not shown.
UniProt Q13123: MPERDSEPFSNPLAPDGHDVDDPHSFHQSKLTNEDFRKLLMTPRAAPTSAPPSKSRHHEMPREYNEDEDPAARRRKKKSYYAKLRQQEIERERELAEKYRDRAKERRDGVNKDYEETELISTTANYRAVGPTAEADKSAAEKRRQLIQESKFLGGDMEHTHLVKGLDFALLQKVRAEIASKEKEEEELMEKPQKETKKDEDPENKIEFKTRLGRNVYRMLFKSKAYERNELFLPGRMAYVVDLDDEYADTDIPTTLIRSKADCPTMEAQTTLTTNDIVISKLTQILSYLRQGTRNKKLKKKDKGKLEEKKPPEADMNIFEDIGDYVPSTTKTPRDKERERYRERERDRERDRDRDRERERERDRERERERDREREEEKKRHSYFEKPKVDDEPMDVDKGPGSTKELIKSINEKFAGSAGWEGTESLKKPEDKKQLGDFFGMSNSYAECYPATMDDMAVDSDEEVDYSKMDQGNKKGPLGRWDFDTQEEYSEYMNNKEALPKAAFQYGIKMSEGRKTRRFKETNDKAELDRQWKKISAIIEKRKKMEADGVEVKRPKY

Ku80 (X-Ray Repair Cross Complementing 5, XRCC5) (from UniProt P13010 1-732)
binding: binds

Reference: paper PMC8160817
